From PMC9516341
Results are given in words; binding and its absence hold for the method and conditions named. For some of these results: Binding calls can cover weak binding; strength is not graded here. Tags and fused reporters may be left off the sequences shown. For some of these results: In cells and extracts the contact can be indirect.

Legend:
[1] = biological target: GST-ARNO (bacterially expressed) (mouse); test: pull-down; bacterially expressed GST or GST-tagged protein as bait, incubated with transfected cell lysate; FE65 detected by blot with anti-FE65 (E-20); only the target purified
[2] = biological target: GST-ARNO^255-386 (PH), bacterially purified (mouse); test: as above
[3] = biological target: Flag-tagged ARNO (p3XFLAG-2-mCytohesin-2) (mouse); test: co-IP; transfected cell lysates; ARNO immunoprecipitated by its tag (anti-GFP JL-8 or anti-FLAG M2); FE65 detected with anti-FE65 (E-20)
GFP-tagged ARNO (mouse) = test: as above
[4] = biological target: GST-ARNO^377-399 (CtH/PBR), mammalian expression (mouse); test: pull-down; mammalian GST fusion protein binding assay: cells co-transfected with FE65 and GST or GST-ARNO fragments; lysates incubated with glutathione Sepharose 4B
[5] = biological target: GST-ARNO^255-386 (PH), mammalian expression (mouse); test: as above
[6] = biological target: GST-ARNO^255-399 (PH + CtH/PBR), mammalian expression (mouse); test: as above
[7] = biological target: GST-ARNO^271-399 (PH + CtH/PBR), purified from E. coli (mouse); test: pull-down; direct interaction assay: bacterially purified GST or GST-ARNO fragment as bait with purified His-tagged protein; in figure 3a with His-FE65 PTB2 or His-FE65 PTB2 R605A added; both purified
[8] = biological target: GST-ARNO^255-386 (PH), bacterially purified (mouse); test: as above

Binder | binding [1] | binding [2] | binding [3] | binding (GFP-tagged ARNO (mouse)) | binding [4] | binding [5] | binding [6] | binding [7] | binding [8]
Myc-tagged FE65 (protein, UniProt O00213 1-710) MSVPSSLSQSAINANSHGGPALSLPLPLHAAHNQLLNAKLQATAVGPKDLRSAMGEGGGPEPGPANAKWLKEGQNQLRRAATAHRDQNRNVTLTLAEEASQEPEMAPLGPKGLIHLYSELELSAHNAANRGLRGPGLIISTQEQGPDEGEEKAAGEAEEEEEDDDDEEEEEDLSSPPGLPEPLESVEAPPRPQALTDGPREHSKSASLLFGMRNSAASDEDSSWATLSQGSPSYGSPEDTDSFWNPNAFETDSDLPAGWMRVQDTSGTYYWHIPTGTTQWEPPGRASPSQGSSPQEESQLTWTGFAHGEGFEDGEFWKDEPSDEAPMELGLKEPEEGTLTFPAQSLSPEPLPQEEEKLPPRNTNPGIKCFAVRSLGWVEMTEEELAPGRSSVAVNNCIRQLSYHKNNLHDPMSGGWGEGKDLLLQLEDETLKLVEPQSQALLHAQPIISIRVWGVGRDSGRERDFAYVARDKLTQMLKCHVFRCEAPAKNIATSLHEICSKIMAERRNARCLVNGLSLDHSKLVDVPFQVEFPAPKNELVQKFQVYYLGNVPVAKPVGVDVINGALESVLSSSSREQWTPSHVSVAPATLTILHQQTEAVLGECRVRFLSFLAVGRDVHTFAFIMAAGPASFCCHMFWCEPNAASLSEAVQAACMLRYQKCLDARSQASTSCLPAPPAESVARRVGWTVRRGVQSLWGSLKPKRLGAHTP | binds | binds | binds | binds | no binding | binds | binds |  | 
His-ARNO^1-270 (CC + Sec7 + Sec7-PH linker), purified from E. coli (domain or fragment, UniProt P63034 1-270) MEDGVYEPPDLTPEERMELENIRRRKQELLVEIQRLREELSEAMSEVEGLEANEGSKTLQRNRKMAMGRKKFNMDPKKGIQFLVEHELLQNTPEEIARFLYKGEGLNKTAIGDYLGEREELNLSVLHAFVDLHEFTDLNLVQALRQFLWSFRLPGEAQKIDRMMEAFAQRYCLCNPGVFQSTDTCYVLSFAVIMLNTSLHNPNVRDKPGLERFVAMNRGINEGGDLPEDLLRNLYDSIRNEPFKIPEDDGNDLTHTFFNPDREGWLLKLG |  |  |  |  |  |  |  | binds | 
His-tagged FE65 PTB2 (domain or fragment, UniProt O00213 531-666) EFPAPKNELVQKFQVYYLGNVPVAKPVGVDVINGALESVLSSSSREQWTPSHVSVAPATLTILHQQTEAVLGECRVRFLSFLAVGRDVHTFAFIMAAGPASFCCHMFWCEPNAASLSEAVQAACMLRYQKCLDARS |  |  |  |  |  |  |  | binds | binds
